Among all 340,000 compounds or so, about 170 (0.05%) were called active. This list was built around the results that the source calls inconclusive (neither active nor inactive); the mix of calls is not that of the screen. Calls follow the shape of the dose curve; as a rule, active = well fitted inhibition curve with a large enough effect in the signal ratio, with a control signal flat (not every such curve was filed as active); inconclusive = small, poorly fitted or top-dose-only effect, or effect the other way, or a change in a side signal; inactive = flat fitted curve, though single readings scatter; the % refers to the signal ratio. A potency beside an inconclusive call is a rough fit, not a confirmed value.
assay: qHTS Assay to Find Inhibitors of Chronic Active B-Cell Receptor Signaling; settings: ABC-DLBCL IkBa-CBG/CBR reporter, luminescence ratio (green luciferase fused to IkBa over red control in TMD8 lymphoma cells), 4 h; activity change, negative = inhibition: at 46.1 µM (top of the series) unless noted;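 as to activity change, negative = inhibition: plate controls were basal doxycycline-induced cells for no effect and cells given 10 µM MG132 for full effect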
In short: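 Cell line TMD8 (human ABC DLBCL), stably expressing tet-inducible CBG68-IkBa fusion and CBR; IMDM/0.5% FBS; cpd up to 46 uM; dox induction, 4 h, 37C/5% CO2; dual luminescence; green/red ratio; MG132 control.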
Potency is read from the fitted curve at half-maximal effect.

| Compound | activity change, negative = inhibition | Potency |
| --- | --- | --- |
| CC(=O)N1C=Cc2c(c(C)c3c([nH]c4ccccc43)c2C)C1 | inconclusive: 4.14% | – |
| N#CCc1ccc(NC(=O)/C=C/c2ccc([N+](=O)[O-])o2)cc1 | inconclusive: -26% | – |
| Cc1c(C(C)C)c(=O)n(-c2ccc(S(=O)(=O)NC(C)C)cc2)n1C | inactive | – |
| OC(CNC1CCCC1)COc1ccccc1Br (stereo not given) | inactive | – |
| O=C1Nc2cccnc2N(C(=O)CCl)c2ccccc21 | inactive | – |
| COc1cccc(/C(O)=C2\C(=O)C(=O)N(c3ccccn3)C2c2cccc(OC)c2OC)c1 (stereo not given) | inconclusive: 6.87% | – |
| CC(C)N1CCc2c(sc(NC(=O)c3ccc(C(=O)c4ccccc4)cc3)c2C(N)=O)C1 | – | inconclusive: 25.1 µM [falling, single point] |
| CS/C(=N\S(=O)(=O)c1cccs1)Nc1ccc(N2CCOCC2)cc1 | – | inconclusive: 35.5 µM [falling, partial curve, poor fit] |
| COCCNC(=O)C(NC(=O)C1CCCCC1)C12CC3CC(CC(C3)C1)C2 (stereo not given) | inactive | – |
| O=C(NN=Cc1cc(Br)c(O)c(Br)c1)c1ccccc1NS(=O)(=O)c1cccs1 | inconclusive: -10.2% | – |
| CCC(C)n1c(C)nc2c(c1=O)c1nc3ccccc3nc1n2CCC1=CCCCC1 (stereo not given) | inactive | – |
| O=C(c1ccc2c(c1)OCO2)N1CCN=C1SCc1cccnc1 | – | inconclusive: 29.1 µM [falling, single point] |
| Cc1cc(-c2nc3cccnc3s2)ccc1NS(=O)(=O)c1ccc2c(c1)OCCO2 | inconclusive: 2.35% | – |
| COc1cc(C(=O)N2CCN(c3ccccc3)CC2)c([N+](=O)[O-])cc1OC | inactive | – |
| O=c1c(C(c2ccc(F)cc2)c2c(O)nc3n(c2=O)CCS3)c(O)nc2n1CCS2 | inconclusive: 2.72% | – |
| CC1CCN(CC(O)COCCC23CC4CC(CC(C4)C2)C3)CC1 (stereo not given) | – | inconclusive: 29.1 µM [falling, single point] |
| CC(Nc1nc(N2CCN(S(C)(=O)=O)CC2)nc2ccccc12)c1ccccc1 (stereo not given) | inconclusive: 2.86% | – |
| c1ccc2c(N3CCOCC3)nc(N3CCOCC3)nc2c1 | – | inconclusive: 1.84 µM [falling, partial curve, poor fit] |
| CCN(CC)C(=O)C1CC(c2ccc(OC)cc2)=NO1 (stereo not given) | – | inconclusive: 35.5 µM [falling, single point] |
| CC(C)(C)C(=O)CSc1ncnc2c1cnn2-c1ccccc1 | – | inconclusive: 2.51 µM [rising, full curve, poor fit] |
| O=C1CN(c2nc(-c3cccnc3)nc3sc4c(c23)CCCC4)CCN1 | – | inconclusive: 7.94 µM [falling, partial curve] |
| Cc1coc(C)c1C(=O)CC1(O)C(=O)Nc2cc(Cl)cc(Cl)c21 (stereo not given) | inconclusive: -0.812% | – |
| CCOC(=O)C1=CN(Cc2cccc(F)c2)S(=O)(=O)N(CC)C1c1ccc(C(F)(F)F)cc1 (stereo not given) | inactive | – |
| O=C(NCC(c1cccnc1)N1CCN(c2ccccc2F)CC1)c1cccc(Cl)c1 (stereo not given) | inactive | – |
| COc1ccc(-c2cn(CCC(=O)O)c(C)n2)cc1 | inconclusive: -19.5% | – |

| Compound | activity change, negative = inhibition | Potency |
| --- | --- | --- |
| O=C(Nc1ccc(CN2CCOCC2)cc1)c1ccc(Cl)cc1Cl | inactive | – |
| Cn1cc(Cl)c(-c2nc3ccccc3[nH]2)n1 | – | inconclusive: 16.4 µM [falling, partial curve, poor fit] |
| CCOC(=O)C(C)Sc1ccc2nnc(-c3ccc(F)cc3)n2n1 (stereo not given) | inconclusive: 8.37% | – |
| COc1ccc(-c2cc(C(F)F)n3ncc(C(=O)N4CCN(C(=O)c5ccco5)CC4)c3n2)cc1 | – | inconclusive: 4.61 µM [falling, partial curve] |
| CCn1cc(/C=C/C(=O)Nc2ccn(Cc3c(F)c(F)cc(F)c3F)n2)cn1 | inconclusive: -4.21% | – |
| O=C(Nc1ccccc1N1CCCC1)c1ccccc1F | inactive | – |
| CCOC(=O)Cc1csc(NC(=O)COc2ccc(OC)cc2)n1 | – | inconclusive: 10.3 µM [falling, partial curve, poor fit] |
| O=C(N/N=C/c1ccc(OC(=O)c2ccccc2)c([N+](=O)[O-])c1)c1ccc(O)cc1 | – | inconclusive: 3.66 µM [falling, partial curve] |
| COc1cc(/C=C2\SC(N3CCCCC3)=NC2=O)cc(OC)c1OC | – | inconclusive: 15.8 µM [falling, partial curve] |
| Clc1ccc(N/N=C/c2cccnc2)cc1 | inconclusive: 5.73% | – |
| O=C(c1cc(-c2ccc(Cl)cc2Cl)on1)N1CCOCC1 | – | inconclusive: 29.1 µM [falling, single point] |
| COc1ccccc1/C=N/NS(=O)(=O)c1ccccc1 | inconclusive: 0.486% | – |
| CCC(C(=O)OC(C)C)c1ccc2ccccc2c1 (stereo not given) | inconclusive: 4.5% | – |
| CC(=O)Nc1ccc(S(=O)(=O)N2CCC(NC(C)=O)(c3cccc(F)c3)CC2)cc1 | inconclusive: 3.97% | – |
| COc1cc(NC(=O)C2CC(c3ccc(Cl)cc3)=NO2)cc(OC)c1OC (stereo not given) | inactive | – |
| O=C(COC(=O)C1=Cc2ccccc2OC1)NCc1ccco1 | – | inconclusive: 7.94 µM [rising, partial curve, poor fit] |
| CCS(=O)(=O)Nc1cccc(C2=NN(S(=O)(=O)c3ccccc3)C(c3ccco3)C2)c1 (stereo not given) | inconclusive: -11.1% | – |
| O=c1oc2cc(Cl)ccc2n1CSc1nc2ccccc2s1 | – | inconclusive: 1.03 µM [rising, full curve] |
| CCN(CC)c1ccc2cc(C(=O)NCc3ccc(F)cc3)c(=N)oc2c1 | inactive | – |
| O=C(Sc1cccc2cccnc12)c1ccc(F)cc1 | inconclusive: -16.1% | – |
| NNc1nc(Nc2ccccc2)nc(Nc2ccccc2)n1 | inactive | – |
| COC(=O)c1c(C)oc2ccc(N(C(=O)c3ccncc3)S(=O)(=O)c3ccc(C)cc3C)cc12 | inconclusive: 3.56% | – |
| O=C(O)c1cccc(COc2ccccc2Cl)c1 | – | inconclusive: 16.4 µM [falling, single point] |
| N#C/C(=C\c1ccncc1)c1nc2ccccc2o1 | – | inconclusive: 22.4 µM [falling, partial curve] |
| O=C(Nc1ccc(Cl)cc1)Nc1nnc(CSCc2ccc(Cl)cc2)s1 | inconclusive: 21.2% | – |

Grouped by structure, the entries above with a cyano group (two)

| Compound | activity change, negative = inhibition | Potency |
| --- | --- | --- |
| N#CCc1ccc(NC(=O)/C=C/c2ccc([N+](=O)[O-])o2)cc1 | inconclusive: -26% | – |
| N#C/C(=C\c1ccncc1)c1nc2ccccc2o1 | – | inconclusive: 22.4 µM [falling, partial curve] |
